Patent US20130236458A1 (AbbVie / Abbott, published 2013)
These are yes or no findings as the source states them, for the method shown. Some results given as binding are weak or reduced against the parent protein; the word gives no strength.

By UniProt entry, the sequences of proteins in these tests, tags left out. Residues count along the entry.
UniProt P35225, residues 35-146: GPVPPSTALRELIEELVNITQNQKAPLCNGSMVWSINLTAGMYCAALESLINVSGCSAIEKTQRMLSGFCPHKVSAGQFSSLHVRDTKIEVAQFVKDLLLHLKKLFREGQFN

T1: Recombinant Human IL-17 (human, UniProt Q16552 20-155, limits assumed)
T1 sequence (looked up): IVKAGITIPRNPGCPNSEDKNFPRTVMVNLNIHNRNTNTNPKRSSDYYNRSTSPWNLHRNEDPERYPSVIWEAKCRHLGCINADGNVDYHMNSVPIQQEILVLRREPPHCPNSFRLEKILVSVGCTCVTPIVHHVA


How the values were obtained:
Recombinant Human IL-13 = Recombinant Human IL-13 (human, UniProt P35225 35-146, limits assumed); experiment: SPR (Biacore)
Method: (§1) The BIACORE assay (Biacore, Inc, Piscataway, N.J.) determined the affinity of antibodies or DVD-Ig with kinetic measurements of on-rate and off-rate constants. Binding of antibodies or DVD-Ig proteins to a target antigen (for example, a purified recombinant target antigen) was determined by surface plasmon resonance-based measurements with a Biacore®1000 or 3000 instrument (Biacore® AB, Uppsala, Sweden) using running HBS-EP (10 mM HEPES [pH 7.4], 150 mM NaCl, 3 mM EDTA, and 0.005% surfactant P20) at 25° C. All chemicals were obtained from Biacore® AB (Uppsala, Sweden) or otherwise from a different source as described in the text. For example, approximately 5000 RU of goat anti-mouse IgG, (Fcγ), fragment specific polyclonal antibody (Pierce Biotechnology Inc, Rockford, Ill.) diluted in 10 mM sodium acetate (pH 4.5) was directly immobilized across a CM5 research grade biosensor chip using a standard amine coupling kit according to manufacturer's instructions and procedures at 25 μg/ml. Unreacted moieties on the biosensor surface were blocked with ethanolamine. Modified carboxymethyl dextran surface in flowcell 2 and 4 was used as a reaction surface. Unmodified carboxymethyl dextran without goat anti-mouse IgG in flow cell 1 and 3 was used as the reference surface. For kinetic analysis, rate equations derived from the 1:1 Langmuir binding model were fitted simultaneously to association and dissociation phases of all eight injections (using global fit analysis) with the use of Biaevaluation 4.0.1 software. Purified antibodies or DVD-Ig proteins were diluted in HEPES-buffered saline for capture across goat anti-mouse IgG specific reaction surfaces. Antibodies or DVD-Ig proteins to be captured as a ligand (25 μg/ml) were injected over reaction matrices at a flow rate of 5 μl/minute. The association and dissociation rate constants, kₒₙ (M⁻¹s⁻¹) and koff (s⁻¹) were determined under a continuous flow rate of 25 μl/minute. Rate constants were derived by making kinetic binding measurements at different antigen concentrations ranging from 10-200 nM. The equilibrium dissociation constant (M) of the reaction between antibodies or DVD-Ig proteins and the target antigen was then calculated from the kinetic rate constants by the following formula: KD=koff/kₒₙ. Binding was recorded as a function of time and kinetic rate constants were calculated.

Recombinant Human IL-17 = biological target: T1, Recombinant Human IL-17; experiment: SPR (Biacore)
Method: as §1

binding (Recombinant Human IL-13)	binding (Recombinant Human IL-17)	Binder
binds	binds	DVD2185 (bispecific antibody, DVD-Ig; also called DVD2185H; DVD2185L) VH: EVQLVQSGAEVKKPGSSVKVSCKASGYTFTDYEIHWVRQAPGQGLEWMGVNDPESGGTFYNQKFDGRVTLTADESTSTAYMELSSLRSEDTAVYYCTRYSKWDSFDGMDYWGQGTTVTVSSASTKGPEVQLVQSGAEVKKPGASVKVSCKASGYTFTSYWMHWVRQAPGQGLEWIGNINPKGGSNIYNEKFQGRVTMTRDTSISTAYMELSRLRSDDTAVYYCARLDYFGDSFDLWGQGTTVTVSS VL: DIQMTQSPSSLSASVGDRVTITCRASSGIISYIDWFQQKPGKAPKRLIYATFDLASGVPSRFSGSGSGTDYTLTISSLQPEDFATYYCRQVGSYPETFGQGTKLEIKRTVAAPDIQMTQSPSSLSASVGDRVTITCRASQGIRNYLNWYQQKPGKAPKLLIYYASNLEVGVPSRFSGSGSGTDYTLTISSLQPEDFATYYCQQDNRFPYTFGGGTKVEIKR
binds	binds	DVD2187 (bispecific antibody, DVD-Ig; also called DVD2187H; DVD2187L) VH: EVQLVQSGAEVKKPGSSVKVSCKASGYTFTDYEIHWVRQAPGQGLEWMGVNDPESGGTFYNQKFDGRVTLTADESTSTAYMELSSLRSEDTAVYYCTRYSKWDSFDGMDYWGQGTTVTVSSASTKGPEVQLVQSGAEVKKPGASVKVSCKASGYTFTSYWMHWVRQAPGQGLEWIGNINPKGGSNIYNEKFQGRVTMTRDTSISTAYMELSRLRSDDTAVYYCARLDYFGDSFDLWGQGTTVTVSS VL: DIQMTQSPSSLSASVGDRVTITCRASSGIISYIDWFQQKPGKAPKRLIYATFDLASGVPSRFSGSGSGTDYTLTISSLQPEDFATYYCRQVGSYPETFGQGTKLEIKRTVAAPSVFIFPPDIQMTQSPSSLSASVGDRVTITCRASQGIRNYLNWYQQKPGKAPKLLIYYASNLEVGVPSRFSGSGSGTDYTLTISSLQPEDFATYYCQQDNRFPYTFGGGTKVEIKR
binds	binds	DVD2189 (bispecific antibody, DVD-Ig; also called DVD2189H; DVD2189L) VH: EVQLVQSGAEVKKPGSSVKVSCKASGYTFTDYEIHWVRQAPGQGLEWMGVNDPESGGTFYNQKFDGRVTLTADESTSTAYMELSSLRSEDTAVYYCTRYSKWDSFDGMDYWGQGTTVTVSSASTKGPSVFPLAPEVQLVQSGAEVKKPGASVKVSCKASGYTFTSYWMHWVRQAPGQGLEWIGNINPKGGSNIYNEKFQGRVTMTRDTSISTAYMELSRLRSDDTAVYYCARLDYFGDSFDLWGQGTTVTVSS VL: DIQMTQSPSSLSASVGDRVTITCRASSGIISYIDWFQQKPGKAPKRLIYATFDLASGVPSRFSGSGSGTDYTLTISSLQPEDFATYYCRQVGSYPETFGQGTKLEIKRTVAAPDIQMTQSPSSLSASVGDRVTITCRASQGIRNYLNWYQQKPGKAPKLLIYYASNLEVGVPSRFSGSGSGTDYTLTISSLQPEDFATYYCQQDNRFPYTFGGGTKVEIKR
binds	binds	DVD2179 (bispecific antibody, DVD-Ig; also called DVD2179H; DVD2179L) VH: EVQLVQSGAEVKKPGESVKISCKASGGSFRSYGISWVRQAPGQGLEWMGGITHFFGITDYAQKFQGRVTITADESTTTAYMELSGLTSDDTAVYYCAREPNDFWNGYYDTHDFDSWGQGTTVTVSSASTKGPEVQLVQSGAEVKKPGASVKVSCKASGYTFTTYGVSWVRQAPGQGLEWMGEIYPGNYNTYYNEKFRGRVTMTTDTSTSTAYMELRSLRSDDTAVYYCARWRTSYFSDYGYFDYWGQGTTVTVSS VL: EIVLTQSPDFQSVTPKEKVTITCRASQNIGSELHWYQQKPDQSPKLLIKYASHSISGVPSRFSGSGSGTDFTLTINGLEAEDAATYYCHQSDTLPHTFGQGTKVDIKRTVAAPDVVMTQSPLSLPVTLGQPASISCRSSQSLVHSHGNTYLHWYQQRPGQSPRLLIYTVSNRFSGVPDRFSGSGSGTDFTLKISRVEAEDVGVYYCSQSTHVPYTFGGGTKVEIKR
binds	binds	DVD2183 (bispecific antibody, DVD-Ig; also called DVD2183H; DVD2183L) VH: EVQLVQSGAEVKKPGESVKISCKASGGSFRSYGISWVRQAPGQGLEWMGGITHFFGITDYAQKFQGRVTITADESTTTAYMELSGLTSDDTAVYYCAREPNDFWNGYYDTHDFDSWGQGTTVTVSSASTKGPSVFPLAPEVQLVQSGAEVKKPGASVKVSCKASGYTFTTYGVSWVRQAPGQGLEWMGEIYPGNYNTYYNEKFRGRVTMTTDTSTSTAYMELRSLRSDDTAVYYCARWRTSYFSDYGYFDYWGQGTTVTVSS VL: EIVLTQSPDFQSVTPKEKVTITCRASQNIGSELHWYQQKPDQSPKLLIKYASHSISGVPSRFSGSGSGTDFTLTINGLEAEDAATYYCHQSDTLPHTFGQGTKVDIKRTVAAPDVVMTQSPLSLPVTLGQPASISCRSSQSLVHSHGNTYLHWYQQRPGQSPRLLIYTVSNRFSGVPDRFSGSGSGTDFTLKISRVEAEDVGVYYCSQSTHVPYTFGGGTKVEIKR
binds	binds	DVD2181 (bispecific antibody, DVD-Ig; also called DVD2181H; DVD2181L) VH: EVQLVQSGAEVKKPGESVKISCKASGGSFRSYGISWVRQAPGQGLEWMGGITHFFGITDYAQKFQGRVTITADESTTTAYMELSGLTSDDTAVYYCAREPNDFWNGYYDTHDFDSWGQGTTVTVSSASTKGPEVQLVQSGAEVKKPGASVKVSCKASGYTFTTYGVSWVRQAPGQGLEWMGEIYPGNYNTYYNEKFRGRVTMTTDTSTSTAYMELRSLRSDDTAVYYCARWRTSYFSDYGYFDYWGQGTTVTVSS VL: EIVLTQSPDFQSVTPKEKVTITCRASQNIGSELHWYQQKPDQSPKLLIKYASHSISGVPSRFSGSGSGTDFTLTINGLEAEDAATYYCHQSDTLPHTFGQGTKVDIKRTVAAPSVFIFPPDVVMTQSPLSLPVTLGQPASISCRSSQSLVHSHGNTYLHWYQQRPGQSPRLLIYTVSNRFSGVPDRFSGSGSGTDFTLKISRVEAEDVGVYYCSQSTHVPYTFGGGTKVEIKR
binds	binds	DVD2197 (bispecific antibody, DVD-Ig; also called DVD2197H; DVD2197L) VH: EVQLVQSGAEVKKPGESVKISCKASGGSFRSYGISWVRQAPGQGLEWMGGITHFFGITDYAQKFQGRVTITADESTTTAYMELSGLTSDDTAVYYCAREPNDFWNGYYDTHDFDSWGQGTTVTVSSASTKGPEVQLVQSGAEVKKPGASVKVSCKASGYTFTSYWMHWVRQAPGQGLEWIGNINPKGGSNIYNEKFQGRVTMTRDTSISTAYMELSRLRSDDTAVYYCARLDYFGDSFDLWGQGTTVTVSS VL: EIVLTQSPDFQSVTPKEKVTITCRASQNIGSELHWYQQKPDQSPKLLIKYASHSISGVPSRFSGSGSGTDFTLTINGLEAEDAATYYCHQSDTLPHTFGQGTKVDIKRTVAAPDIQMTQSPSSLSASVGDRVTITCRASQGIRNYLNWYQQKPGKAPKLLIYYASNLEVGVPSRFSGSGSGTDYTLTISSLQPEDFATYYCQQDNRFPYTFGGGTKVEIKR
binds	binds	DVD2199 (bispecific antibody, DVD-Ig; also called DVD2199H; DVD2199L) VH: EVQLVQSGAEVKKPGESVKISCKASGGSFRSYGISWVRQAPGQGLEWMGGITHFFGITDYAQKFQGRVTITADESTTTAYMELSGLTSDDTAVYYCAREPNDFWNGYYDTHDFDSWGQGTTVTVSSASTKGPEVQLVQSGAEVKKPGASVKVSCKASGYTFTSYWMHWVRQAPGQGLEWIGNINPKGGSNIYNEKFQGRVTMTRDTSISTAYMELSRLRSDDTAVYYCARLDYFGDSFDLWGQGTTVTVSS VL: EIVLTQSPDFQSVTPKEKVTITCRASQNIGSELHWYQQKPDQSPKLLIKYASHSISGVPSRFSGSGSGTDFTLTINGLEAEDAATYYCHQSDTLPHTFGQGTKVDIKRTVAAPSVFIFPPDIQMTQSPSSLSASVGDRVTITCRASQGIRNYLNWYQQKPGKAPKLLIYYASNLEVGVPSRFSGSGSGTDYTLTISSLQPEDFATYYCQQDNRFPYTFGGGTKVEIKR
binds	binds	DVD2196 (bispecific antibody, DVD-Ig; also called DVD2196H; DVD2196L) VH: EVQLVQSGAEVKKPGASVKVSCKASGYTFTSYWMHWVRQAPGQGLEWIGNINPKGGSNIYNEKFQGRVTMTRDTSISTAYMELSRLRSDDTAVYYCARLDYFGDSFDLWGQGTTVTVSSASTKGPEVQLVQSGAEVKKPGESVKISCKASGGSFRSYGISWVRQAPGQGLEWMGGITHFFGITDYAQKFQGRVTITADESTTTAYMELSGLTSDDTAVYYCAREPNDFWNGYYDTHDFDSWGQGTTVTVSS VL: DIQMTQSPSSLSASVGDRVTITCRASQGIRNYLNWYQQKPGKAPKLLIYYASNLEVGVPSRFSGSGSGTDYTLTISSLQPEDFATYYCQQDNRFPYTFGGGTKVEIKRTVAAPEIVLTQSPDFQSVTPKEKVTITCRASQNIGSELHWYQQKPDQSPKLLIKYASHSISGVPSRFSGSGSGTDFTLTINGLEAEDAATYYCHQSDTLPHTFGQGTKVDIKR
